These are yes or no findings as the source states them, for the method shown.

The target in assay [1] is T1, NOT2 (Drosophila CCR4-NOT complex subunit) (Drosophila) (UniProt Q94547).
T1 sequence: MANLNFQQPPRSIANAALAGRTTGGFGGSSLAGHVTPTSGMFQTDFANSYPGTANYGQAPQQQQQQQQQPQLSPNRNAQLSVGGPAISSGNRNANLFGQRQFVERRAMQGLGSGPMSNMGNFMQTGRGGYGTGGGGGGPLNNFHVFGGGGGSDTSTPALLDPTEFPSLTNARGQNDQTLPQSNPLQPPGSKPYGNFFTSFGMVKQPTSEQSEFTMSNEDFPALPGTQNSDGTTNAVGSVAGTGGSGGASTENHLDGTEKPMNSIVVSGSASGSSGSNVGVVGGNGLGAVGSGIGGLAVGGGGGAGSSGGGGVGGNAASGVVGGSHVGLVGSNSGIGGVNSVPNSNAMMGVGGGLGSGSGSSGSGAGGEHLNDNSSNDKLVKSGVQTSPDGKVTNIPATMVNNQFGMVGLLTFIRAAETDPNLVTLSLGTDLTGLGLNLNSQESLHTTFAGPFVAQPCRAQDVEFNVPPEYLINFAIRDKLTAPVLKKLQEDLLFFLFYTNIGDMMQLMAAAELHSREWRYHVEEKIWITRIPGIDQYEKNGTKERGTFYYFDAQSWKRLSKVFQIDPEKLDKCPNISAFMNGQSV
The experiment in a line: ReLo relocalization assay (live-cell confocal fluorescence microscopy); pairwise; one partner anchored to the plasma membrane by the PH domain of rat PLCδ1 and fused to mCherry, the other fused to EGFP/mEGFP; S2R+ cells cotransfected with two plasmids, imaged after 48 h at 25 °C.

In assay [2] the target is T1, NOT2 (Drosophila CCR4-NOT complex subunit) (Drosophila). The experiment in a line: ReLo relocalization assay (live-cell confocal fluorescence microscopy); pairwise; membrane anchor (PH or OST4) and which partner was anchored are not given; S2R+ cells cotransfected with two plasmids, imaged after 48 h at 25 °C.
Assay [3] addresses CCR4 (Drosophila CCR4-NOT complex subunit) (Drosophila). The description is as above.
Assay [4] addresses CAF1 (Drosophila CCR4-NOT complex subunit) (Drosophila). Described as above.
Assay [5] shares this target. The experiment in a line: ReLo relocalization assay (live-cell confocal fluorescence microscopy); pairwise; one partner anchored to the plasma membrane by the PH domain of rat PLCδ1 and fused to mCherry, the other fused to EGFP/mEGFP; S2R+ cells cotransfected with two plasmids, imaged after 48 h at 25 °C.
Assay [6] addresses CAF1 with the OST4 membrane anchor (Drosophila). The experiment in a line: ReLo relocalization assay (live-cell confocal fluorescence microscopy); pairwise; one partner anchored to the ER by yeast OST4 and fused to mCherry; S2R+ cells cotransfected, imaged after 48 h.

For the molecule “CCR4 (Drosophila CCR4-NOT complex subunit)”, the binding result in assay [1] was “no binding”.

Take Roquin (Drosophila): the binding entry in assay [2] is on record as “no binding”.

B1: Cup (Drosophila) (protein, UniProt Q9VMA3 1-1117)
chain: MQMAEAEQENGAGALKIATNAGATDRPAHQQLPLPVEDQQDEVLTPAEKGKFEYPPPPPPPTPVQAPLATKATALNASQEHDDDEANSEKWEDPCAPPPPPPLPTSAFLATGLGYLKLPAFKLKDALEKAITKLEANKRTLKASPESSRSIKNKNVVALEMLPRRSNPETIGDGSMLASTSTAVMLQTKKPAVIVEMERRCKIINLLAKQNQILESISGEAIPMHGPSKHLHEDEGLTLQVLSARASTPYTQPSSMLSCTAVSCDLEHDSPRKQVASKEAVPEQQSSQVQQKRPPSTGIHKPGSLRAPKAVRPTTAPVVSSKPVKSYTRSRLMDIRNGMFNALMHRSKESFVMPRIATCDDIELEGRLRRMNIWRTSDGTRFRTRSTTANLNMNNNNNNECMPAFFKNKNKPNLISDESIIQSQPPQPQTEFQDPAIVNQRRIGSGRLNHSKWGYNDEDYHSYHNGKSQHMEEVNSKNSKNMTVLQFFDNGEISSQPQRRPNTPVMGMSINRSENDTLHSNESSEDLSRANENYVKRVMSGFLVVSKPKSRDVEDRHHRRYRNQNEEPEWFSCGPTSRLDTIELCGFDEDEEKMLKEGNKNHGLGETERETSKQKMDHKYKWTHAEPMGRSKYMPKHDTNNNHNVENMNNVMATEHQQQKEEKRPGSGRSFQFDKFNQSQQNYESSSYVNHQQPPQTQPQQMQQQSNTNTNNSKFMSFFANEGNSSSSSLNEFFKQAINQGHGNNPEQPKSLGHIGQMPSVDQLEAKWRRNSLNNVGETANKQTDNFQKLIGSLSSAKPQSQAVGYDAISNFIMQQQQYQQQQQKQHLIIQQQQQHTAFLASLQLKAILGRADTQLLLLRLTKGEISKHGLLVQLANPRLTDMDREAITAVLQFTNTQQQQQQHKQQLDMLSSTVIASQLQNLHNLAIVQQTLAARQQPQHNPQTQAPHQLSQEDLQAHANVIMRNAVMKRKIEEQTSKLINGGAKHQAQQQYLNRGQQRQARPDANSNALLHALISGGGNNHASGYPMNGQPQKHHSNLRFGDNQNFQSFESNQPHFATQYKQQYQQSQQQHPHQQPQQLNSLHQNNAGAVNSFNKAQMQAQSAISMLPNSGDEFH
On to B1, for which the binding entry in assay [3] and in assay [4] was “no binding” in each case.

B2: NOT2 (Drosophila CCR4-NOT complex subunit) (protein, UniProt Q94547 1-585)
chain: T1 sequence
B2: the binding entry in assay [5] and in assay [6] was “no binding” in each case.

B3: Bag-of-marbles (Bam) (protein, UniProt P22745 1-442)
chain: MLNARDVCPEGNDDQQLDHNFKQMEEHLALMVEGNENEDPRKATCEYEDTNEDGATCTSGVLSEIQENFGRLRLCDVTAPLLEFHGLDCLQQIQKRSRHFAFDGSPAKKSRSGGVLVTGPKQKQLQKENVWNRKSKGSASADNIEKLPITIEKLHMIGLHGDCLEHNAVLRLMNLFRSLHDHLTADLGFSRQNSMPSDYLFDMPVKSTMPKSLNVRYQLQVLCTKVERFLVQQRRTLEANRHFDFEKYDECDKLLKGFASYLDNFKLLLKPKMRNRNGNSGSNADKFHTQRMERLLIGLRDWIKAAHLSVHVFNWEMDLEHRYSGAMTESHKSLNERAILLSGAELRAAEARGISAEDLFIAQRYKLGGPIYCVLEQHEFLSALIANPETYFPPSVVAICGPQKLGAVSMEQPSASEEEFEETEEVPSSPPRHTGRVPRFRS
For B3, the binding result in assay [3] and in assay [4] was “no binding” each time.
